Measurements from patent publication US20220378780A1, “PHARMACEUTICAL COMPOSITIONS COMPRISING POH DERIVATIVES” (NeOnc Technologies, Inc., priority 2019, published 2022).
Some of these results come from one statement about several compounds together.

System: HUT78 cells
Test: MTT cell viability assay, HUT78 (Example 15)
Details: HUT78, 72 hours

`C=C(C)[C@@H]1CC=C(CO)CC1` [POH, perillyl alcohol, reference compound] was tested, and the IC50 was > 300 µM.
